The list is a part of this screen's results and no random one: it is rich in T/C values a quarter to a half above the control, in often repeated tests (any T/C) and in doses without a T/C. Further doses and runs are listed elsewhere. T/C gives the treated animals as a percentage of the vehicle group. Some entries give survivors of the animals treated and no T/C: the source files T/C as zero there, which appears to mark a toxic dose or a test without result, not a measured value. Some survivor counts are full or nearly so, which does not show that the dose was tolerated: the source hardly ever lists a survival T/C far under the control, and the zero likely stands for such cases as well. Survivors were counted at the toxicity check, usually on the fifth day, unless a day is given; later deaths do not show. Schedule codes are those of the source, read here as Q, the interval in days (D) or hours (H), X, the number of doses. Some structures stand for samples that the source files as different forms (salt, stereo form or complex); doses refer to the form tested. Some entries hold several experiments; their values stand side by side, smallest first. Marks such as (2×) count equal records among those shown. For survival time, this PubChem deposit counts one and a half times the control or more as active, and values a quarter to a half above the control carry no call in these data; other NCI protocols may use other cut-offs.
Tested on: P388 leukemia ip, CD2F1 mice, survival T/C
Assay: NCI In Vivo Anticancer Drug Screen. Data for tumor model P388 Leukemia (intraperitoneal) in CD2F1 (CDF1) mice
Details: T/C endpoint: median survival time, higher T/C = longer survival
[1] = dose: 50.0 mg/kg/injection, schedule: Q01DX009 (ip), vehicle: saline with Tween-80
[2] = dose: 200.0 mg/kg/injection, schedule: Q01DX009 (ip), vehicle: saline with Tween-80
[3] = dose: 100.0 mg/kg/injection, schedule: Q01DX005 (ip), vehicle: Klucel (hydroxypropylcellulose) (HPC)
[4] = dose: 200.0 mg/kg/injection, schedule: Q01DX005 (ip), vehicle: Klucel (hydroxypropylcellulose) (HPC)
[5] = dose: 25.0 mg/kg/injection, schedule: Q01DX005 (ip), vehicle: Klucel (hydroxypropylcellulose) (HPC)
[6] = dose: 50.0 mg/kg/injection, schedule: Q01DX005 (ip), vehicle: Klucel (hydroxypropylcellulose) (HPC)
[7] = dose: 200.0 mg/kg/injection, schedule: Q04DX002 (ip), vehicle: saline with Tween-80
[8] = dose: 12.5 mg/kg/injection, schedule: Q01DX009 (ip), vehicle: saline with Tween-80
[9] = dose: 25.0 mg/kg/injection, schedule: Q01DX009 (ip), vehicle: saline with Tween-80
[10] = dose: 50.0 mg/kg/injection, schedule: Q01DX005 (ip), vehicle: saline with Tween-80

For `CCCCCCCC(=O)NC1CC(O[C@H]2C[C@](O)(C(C)=O)Cc3c(O)c4c(c(O)c32)C(=O)c2c(OC)cccc2C4=O)OC(C)C1O` (stereo partly specified), the T/C (dose: 1.5 mg/kg/injection, schedule: Q01DX009 (ip), vehicle: other) was 125 % of control, the T/C (dose: 3.0 mg/kg/injection, schedule: Q01DX009 (ip), vehicle: other) was 134 % of control and the T/C (dose: 6.0 mg/kg/injection, schedule: Q01DX009 (ip), vehicle: other) was 141 % of control. For the same compound, the T/C (dose: 12.0 mg/kg/injection, schedule: Q01DX009 (ip), vehicle: other) was 149 % of control, the T/C (dose: 16.0 mg/kg/injection, schedule: Q04DX003 (ip), vehicle: other) was 125 % of control and the T/C (dose: 64.0 mg/kg/injection, schedule: Q04DX003 (ip), vehicle: other) was 129 % of control. The T/C (dose: 200.0 mg/kg/injection, schedule: Q04DX003 (ip), vehicle: other) was 140 % of control.

For `CC(C)(c1ccccc1)c1cc(CN2CCCCC2)c(O)c(CN2CCCCC2)c1`, the survivor count [1] was 5 of 6 and the survivor count [2] was 0 of 6.

In the case of `Cc1cc(C)c(SSc2nnnn2C)c(C)c1`, the survivor count (dose: 200.0 mg/kg/injection, schedule: Q01DX009 (ip), vehicle: Klucel (hydroxypropylcellulose) (HPC)) is reported as 0 of 6.

With `CC(=O)OC1(C)C(=O)OC/C2=C/CN(C)CCC(OC(=O)C(O)(C(C)Cl)CC1C)C2=O` (stereo unspecified) the survivor count [3] was 1 of 6, the survivor count [4] was 0 of 6 and the survivor count (dose: 400.0 mg/kg/injection, schedule: Q01DX005 (ip), vehicle: Klucel (hydroxypropylcellulose) (HPC)) was 0 of 6.

`O=C(NC1CCCCC1NC(=O)C12CC3CC(CC(C3)C1)C2)C12CC3CC(CC(C3)C1)C2` (stereo unspecified) was tested, and the survivor count [5] was 6 of 6, the survivor count [6] was 6 of 6 and the survivor count [3] was 6 of 6.

In the case of `CC(=O)Oc1cc(OCCCc2ccc(F)cc2)cc2ccc3ccccc3c12`, the survivor count [7] is reported as 6 of 6.

In the case of `O=c1cccc(C(Cl)(Cl)Cl)o1`, the survivor count (dose: 240.0 mg/kg/injection, schedule: Q01DX005 (ip), vehicle: saline + Tween-80 + alcohol) is reported as 0 of 6.

`O=c1[nH]c2cc(Cl)ccc2nc1/C=C(\O)c1cccc(O)c1` was tested, and the survivor count (dose: 120.0 mg/kg/injection, schedule: Q01DX005 (ip), vehicle: Klucel + Tween-80) was 6 of 6 and the survivor count (dose: 240.0 mg/kg/injection, schedule: Q01DX005 (ip), vehicle: Klucel + Tween-80) was 6 of 6.

For `C(=N\Nc1c2c(nc3ccccc13)CCCC2)/c1ccc2c(c1)OCO2`, the survivor count [5] was 5 of 6, the survivor count [6] was 5 of 6 and the survivor count [3] was 2 of 6. The survivor count [4] was 0 of 6.

`CCOC([O-])=N/C(=N/[n+]1ccc(C)cc1)c1ccccc1` was tested, and the survivor count (dose: 400.0 mg/kg/injection, schedule: Q04DX003 (ip), vehicle: saline) was 2 of 6.

In the case of `CCCCCCC1N=C(N)N=C(N)N1c1cccc(Cl)c1` (stereo unspecified), the survivor count [6] is reported as 0 of 5 and 3 of 5, the survivor count [3] is reported as 0 of 5 and the survivor count [4] is reported as 0 of 5.

With `CN=C(N)N/N=C(\C)c1ccc(-c2ccccc2)cc1` the survivor count (dose: 100.0 mg/kg/injection, schedule: Q04DX002 (ip), vehicle: saline with Tween-80) was 1 of 6.

With `CC(=O)OC1CCC2(C)CCC3C(OC(=O)C3(C)[Se]c3ccccc3)C2C1C` (stereo unspecified) the survivor count [7] was 6 of 6 and the survivor count (dose: 400.0 mg/kg/injection, schedule: Q04DX002 (ip), vehicle: saline with Tween-80) was 6 of 6.

With `NNC(=O)N/N=C/c1ccccc1Cl` the survivor count [3] was 0 of 6 and the survivor count [4] was 0 of 6.

With `CNC(=O)O/N=C/C(C)(C)SC` the survivor count (dose: 0.93 mg/kg/injection, schedule: Q01DX005 (ip), vehicle: Klucel (hydroxypropylcellulose) (HPC)) was 0 of 6, the survivor count (dose: 1.87 mg/kg/injection, schedule: Q01DX005 (ip), vehicle: Klucel (hydroxypropylcellulose) (HPC)) was 0 of 6 and the survivor count (dose: 3.75 mg/kg/injection, schedule: Q01DX005 (ip), vehicle: Klucel (hydroxypropylcellulose) (HPC)) was 0 of 6. For the same compound, the survivor count (dose: 7.5 mg/kg/injection, schedule: Q01DX005 (ip), vehicle: Klucel (hydroxypropylcellulose) (HPC)) was 0 of 6, the survivor count (dose: 15.0 mg/kg/injection, schedule: Q01DX005 (ip), vehicle: Klucel (hydroxypropylcellulose) (HPC)) was 0 of 6 and the survivor count (dose: 30.0 mg/kg/injection, schedule: Q01DX005 (ip), vehicle: Klucel (hydroxypropylcellulose) (HPC)) was 0 of 6. The survivor count (dose: 60.0 mg/kg/injection, schedule: Q01DX005 (ip), vehicle: Klucel (hydroxypropylcellulose) (HPC)) was 0 of 6, the survivor count (dose: 120.0 mg/kg/injection, schedule: Q01DX005 (ip), vehicle: Klucel (hydroxypropylcellulose) (HPC)) was 0 of 6 and the survivor count (dose: 240.0 mg/kg/injection, schedule: Q01DX005 (ip), vehicle: Klucel (hydroxypropylcellulose) (HPC)) was 0 of 6.

`CCOc1ccc2c(ccc(/C=C\c3cc(C)c4cccnc4c3O)[n+]2C)c1` was tested, and the T/C [8] was 135 % of control, the survivor count [8] was 6 of 6 and the survivor count [9] was 4 of 6. The survivor count [1] was 2 of 6.

With `CCN(CC)CC[n+]1ccc2c(C)c3[nH]c4ccccc4c3c(C)c2c1` the T/C (dose: 1.25 mg/kg/injection, schedule: Q04DX002 (ip), vehicle: water) was 125 % of control, the T/C (dose: 2.5 mg/kg/injection, schedule: Q04DX002 (ip), vehicle: water) was 130 % of control and the T/C (dose: 3.12 mg/kg/injection, schedule: Q04DX003 (ip), vehicle: water) was 127 % of control. For the same compound, the T/C (dose: 5.0 mg/kg/injection, schedule: Q04DX002 (ip), vehicle: water) was 129 and 137 % of control, the T/C (dose: 6.25 mg/kg/injection, schedule: Q04DX003 (ip), vehicle: water) was 125 % of control and the survivor count (dose: 10.0 mg/kg/injection, schedule: Q04DX002 (ip), vehicle: water) was 1 of 6 and 4 of 6. The survivor count (dose: 12.5 mg/kg/injection, schedule: Q04DX003 (ip), vehicle: water) was 5 of 6, the survivor count (dose: 20.0 mg/kg/injection, schedule: Q04DX002 (ip), vehicle: water) was 0 of 6 and 5 of 6 and the survivor count (dose: 25.0 mg/kg/injection, schedule: Q04DX003 (ip), vehicle: water) was 5 of 6. The survivor count (dose: 40.0 mg/kg/injection, schedule: Q04DX002 (ip), vehicle: water) was 2 of 6, the survivor count (dose: 50.0 mg/kg/injection, schedule: Q04DX003 (ip), vehicle: water) was 0 of 6 and the survivor count (dose: 80.0 mg/kg/injection, schedule: Q04DX002 (ip), vehicle: water) was 0 of 6. For the same compound, the survivor count (dose: 100.0 mg/kg/injection, schedule: Q04DX003 (ip), vehicle: water) was 0 of 6 and the survivor count (dose: 200.0 mg/kg/injection, schedule: Q04DX003 (ip), vehicle: water) was 0 of 6.

For `O=C(NC1CC(c2ccccc2)(c2ccccc2)OC1=O)c1ccccc1` (stereo unspecified), the survivor count [2] was 5 of 6.

In the case of `COc1ccc(Oc2cc3c[n+](C)ccc3cc2OC)cc1`, the survivor count (dose: 50.0 mg/kg/injection, schedule: Q01DX009 (ip), vehicle: alcohol) is reported as 5 of 6, the survivor count (dose: 50.0 mg/kg/injection, schedule: Q01DX009 (ip), vehicle: saline) is reported as 2 of 6 and the survivor count (dose: 100.0 mg/kg/injection, schedule: Q01DX009 (ip), vehicle: alcohol) is reported as 0 of 6. The survivor count (dose: 200.0 mg/kg/injection, schedule: Q01DX009 (ip), vehicle: alcohol) was 0 of 6.

`C/C(=N\NC(=S)N(C)C1CCCCC1)c1ccc2ccccc2n1` was tested, and the T/C (dose: 25.0 mg/kg/injection, schedule: Q01DX005 (ip), vehicle: saline with Tween-80) was 131 % of control, the T/C [10] was 147 % of control and the survivor count [10] was 6 of 6. For the same compound, the survivor count (dose: 100.0 mg/kg/injection, schedule: Q01DX005 (ip), vehicle: saline with Tween-80) was 2 of 6 and the survivor count (dose: 200.0 mg/kg/injection, schedule: Q01DX005 (ip), vehicle: saline with Tween-80) was 0 of 6.

With `C1=CSC(=C2SC=CS2)S1` the T/C [9] was 126 % of control.

`CCCCc1ccc(N2C(N)=NC(N)=NC2(C)C)cc1` was tested, and the survivor count [5] was 3 of 6, the survivor count [6] was 0 of 6 and 1 of 6 and the survivor count [3] was 0 of 6 (2×). For the same compound, the survivor count [4] was 0 of 6 (2×).

`COc1cccc(-c2nsc(=O)o2)c1` was tested, and the survivor count (dose: 400.0 mg/kg/injection, schedule: Q01DX009 (ip), vehicle: Klucel (hydroxypropylcellulose) (HPC)) was 3 of 6.
